Laboratory results taken from the supplement of paper PMC10849652.
The other results are listed elsewhere or left out.

The chains behind the UniProt entries cited, without tags or fusion partners. Where a name states a change or a piece, a line headed by the entry shows the natural chain unless it says otherwise.
UniProt Q9Y2I8: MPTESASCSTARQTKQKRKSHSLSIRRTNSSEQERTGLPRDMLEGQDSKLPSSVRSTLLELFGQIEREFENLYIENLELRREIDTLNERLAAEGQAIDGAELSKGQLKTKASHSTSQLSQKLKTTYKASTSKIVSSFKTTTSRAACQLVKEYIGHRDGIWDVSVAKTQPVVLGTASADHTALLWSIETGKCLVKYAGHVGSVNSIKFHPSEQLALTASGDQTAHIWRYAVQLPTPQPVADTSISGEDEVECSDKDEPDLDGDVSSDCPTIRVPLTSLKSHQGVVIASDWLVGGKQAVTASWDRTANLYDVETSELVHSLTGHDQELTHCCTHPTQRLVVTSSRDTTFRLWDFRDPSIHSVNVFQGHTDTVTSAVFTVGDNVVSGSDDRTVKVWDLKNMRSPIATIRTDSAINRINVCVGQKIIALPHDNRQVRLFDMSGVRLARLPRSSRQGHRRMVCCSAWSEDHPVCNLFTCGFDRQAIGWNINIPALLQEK
UniProt Q9NW82: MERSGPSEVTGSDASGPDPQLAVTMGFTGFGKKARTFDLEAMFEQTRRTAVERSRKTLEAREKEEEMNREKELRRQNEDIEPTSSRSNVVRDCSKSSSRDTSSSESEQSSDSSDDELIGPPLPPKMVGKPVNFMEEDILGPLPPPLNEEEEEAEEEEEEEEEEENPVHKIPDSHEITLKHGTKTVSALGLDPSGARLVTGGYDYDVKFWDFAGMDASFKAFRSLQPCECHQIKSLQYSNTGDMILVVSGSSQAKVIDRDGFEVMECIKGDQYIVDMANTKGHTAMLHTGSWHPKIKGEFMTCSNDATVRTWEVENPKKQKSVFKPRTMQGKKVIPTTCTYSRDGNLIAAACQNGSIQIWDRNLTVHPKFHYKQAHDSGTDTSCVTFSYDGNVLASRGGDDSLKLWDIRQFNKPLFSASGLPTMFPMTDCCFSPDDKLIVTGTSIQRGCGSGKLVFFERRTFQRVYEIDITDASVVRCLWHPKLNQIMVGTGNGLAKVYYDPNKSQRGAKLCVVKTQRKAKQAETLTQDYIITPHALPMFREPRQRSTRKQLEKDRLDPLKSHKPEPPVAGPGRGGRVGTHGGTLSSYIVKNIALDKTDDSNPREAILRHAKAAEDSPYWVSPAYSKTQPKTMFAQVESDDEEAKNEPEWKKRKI
UniProt Q96S55: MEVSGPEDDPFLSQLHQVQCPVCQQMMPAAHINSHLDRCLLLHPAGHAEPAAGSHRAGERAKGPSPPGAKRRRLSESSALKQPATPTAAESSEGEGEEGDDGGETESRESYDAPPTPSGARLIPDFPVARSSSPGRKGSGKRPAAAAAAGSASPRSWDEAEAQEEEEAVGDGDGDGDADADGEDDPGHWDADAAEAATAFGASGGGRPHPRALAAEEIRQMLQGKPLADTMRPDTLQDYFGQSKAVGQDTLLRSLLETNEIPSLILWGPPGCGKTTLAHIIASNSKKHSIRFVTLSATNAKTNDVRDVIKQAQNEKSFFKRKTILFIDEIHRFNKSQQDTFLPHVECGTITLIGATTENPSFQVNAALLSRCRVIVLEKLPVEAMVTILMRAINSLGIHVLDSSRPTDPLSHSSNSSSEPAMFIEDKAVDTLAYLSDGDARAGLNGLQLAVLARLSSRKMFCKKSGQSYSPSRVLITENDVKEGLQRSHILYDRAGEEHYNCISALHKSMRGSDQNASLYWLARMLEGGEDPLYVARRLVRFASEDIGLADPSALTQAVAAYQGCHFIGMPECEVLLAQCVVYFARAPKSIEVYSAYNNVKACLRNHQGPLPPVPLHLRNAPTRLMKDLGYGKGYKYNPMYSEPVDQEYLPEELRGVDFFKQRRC
UniProt O94967: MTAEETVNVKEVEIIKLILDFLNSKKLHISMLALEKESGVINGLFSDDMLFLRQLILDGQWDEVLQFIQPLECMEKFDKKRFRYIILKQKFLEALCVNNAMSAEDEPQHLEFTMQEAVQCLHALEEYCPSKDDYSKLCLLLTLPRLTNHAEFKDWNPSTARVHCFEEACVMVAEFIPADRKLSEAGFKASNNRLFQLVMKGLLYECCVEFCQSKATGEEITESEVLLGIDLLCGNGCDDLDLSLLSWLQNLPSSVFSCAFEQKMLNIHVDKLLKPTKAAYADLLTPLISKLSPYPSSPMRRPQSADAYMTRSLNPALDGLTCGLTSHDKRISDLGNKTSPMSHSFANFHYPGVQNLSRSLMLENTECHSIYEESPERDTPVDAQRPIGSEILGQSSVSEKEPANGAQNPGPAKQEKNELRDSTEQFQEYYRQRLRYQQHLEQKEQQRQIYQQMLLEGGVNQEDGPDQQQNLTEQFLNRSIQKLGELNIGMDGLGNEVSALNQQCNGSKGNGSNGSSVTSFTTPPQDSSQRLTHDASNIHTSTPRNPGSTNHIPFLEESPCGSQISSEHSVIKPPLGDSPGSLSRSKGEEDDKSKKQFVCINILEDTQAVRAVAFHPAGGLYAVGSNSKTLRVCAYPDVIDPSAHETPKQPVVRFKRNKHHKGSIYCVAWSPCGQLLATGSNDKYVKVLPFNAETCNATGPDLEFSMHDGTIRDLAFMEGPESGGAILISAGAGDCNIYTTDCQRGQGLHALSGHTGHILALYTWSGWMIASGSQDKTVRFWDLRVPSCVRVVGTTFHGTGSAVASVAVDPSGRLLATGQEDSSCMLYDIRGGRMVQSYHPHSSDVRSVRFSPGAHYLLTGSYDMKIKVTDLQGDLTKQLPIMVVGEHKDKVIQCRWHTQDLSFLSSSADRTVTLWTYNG
UniProt Q8N1B4: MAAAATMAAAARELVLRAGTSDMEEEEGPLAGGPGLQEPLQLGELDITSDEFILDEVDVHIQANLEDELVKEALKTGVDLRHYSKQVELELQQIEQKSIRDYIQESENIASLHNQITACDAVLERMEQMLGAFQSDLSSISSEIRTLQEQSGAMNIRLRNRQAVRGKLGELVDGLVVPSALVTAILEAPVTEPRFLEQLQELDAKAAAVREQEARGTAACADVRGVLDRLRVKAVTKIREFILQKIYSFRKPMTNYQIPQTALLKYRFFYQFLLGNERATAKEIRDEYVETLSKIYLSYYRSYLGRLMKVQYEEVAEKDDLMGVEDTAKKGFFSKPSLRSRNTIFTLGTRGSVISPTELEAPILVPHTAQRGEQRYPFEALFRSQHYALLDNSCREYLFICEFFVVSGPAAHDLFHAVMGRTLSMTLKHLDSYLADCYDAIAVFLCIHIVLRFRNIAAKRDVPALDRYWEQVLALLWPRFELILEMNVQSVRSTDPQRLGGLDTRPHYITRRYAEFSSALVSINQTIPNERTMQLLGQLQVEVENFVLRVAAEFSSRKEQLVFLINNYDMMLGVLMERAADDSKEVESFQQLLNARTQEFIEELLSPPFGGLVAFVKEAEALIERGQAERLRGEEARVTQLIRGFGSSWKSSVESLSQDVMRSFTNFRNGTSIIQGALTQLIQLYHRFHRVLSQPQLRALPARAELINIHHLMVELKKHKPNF
UniProt Q9NRW7: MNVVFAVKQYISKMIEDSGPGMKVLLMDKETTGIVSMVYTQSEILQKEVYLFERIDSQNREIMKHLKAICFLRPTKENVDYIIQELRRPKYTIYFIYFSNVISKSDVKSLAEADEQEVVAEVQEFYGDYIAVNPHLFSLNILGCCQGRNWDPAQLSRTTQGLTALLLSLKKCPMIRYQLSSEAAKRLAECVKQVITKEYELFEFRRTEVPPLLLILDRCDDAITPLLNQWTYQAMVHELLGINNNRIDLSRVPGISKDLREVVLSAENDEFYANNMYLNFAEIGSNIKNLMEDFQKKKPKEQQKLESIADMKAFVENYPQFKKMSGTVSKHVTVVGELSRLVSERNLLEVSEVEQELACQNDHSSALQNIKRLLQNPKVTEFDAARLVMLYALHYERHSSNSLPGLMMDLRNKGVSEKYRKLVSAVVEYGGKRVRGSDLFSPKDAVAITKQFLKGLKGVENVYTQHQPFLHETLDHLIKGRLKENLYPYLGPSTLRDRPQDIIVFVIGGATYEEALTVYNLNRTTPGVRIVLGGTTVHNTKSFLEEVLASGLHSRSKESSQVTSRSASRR
UniProt Q9P253: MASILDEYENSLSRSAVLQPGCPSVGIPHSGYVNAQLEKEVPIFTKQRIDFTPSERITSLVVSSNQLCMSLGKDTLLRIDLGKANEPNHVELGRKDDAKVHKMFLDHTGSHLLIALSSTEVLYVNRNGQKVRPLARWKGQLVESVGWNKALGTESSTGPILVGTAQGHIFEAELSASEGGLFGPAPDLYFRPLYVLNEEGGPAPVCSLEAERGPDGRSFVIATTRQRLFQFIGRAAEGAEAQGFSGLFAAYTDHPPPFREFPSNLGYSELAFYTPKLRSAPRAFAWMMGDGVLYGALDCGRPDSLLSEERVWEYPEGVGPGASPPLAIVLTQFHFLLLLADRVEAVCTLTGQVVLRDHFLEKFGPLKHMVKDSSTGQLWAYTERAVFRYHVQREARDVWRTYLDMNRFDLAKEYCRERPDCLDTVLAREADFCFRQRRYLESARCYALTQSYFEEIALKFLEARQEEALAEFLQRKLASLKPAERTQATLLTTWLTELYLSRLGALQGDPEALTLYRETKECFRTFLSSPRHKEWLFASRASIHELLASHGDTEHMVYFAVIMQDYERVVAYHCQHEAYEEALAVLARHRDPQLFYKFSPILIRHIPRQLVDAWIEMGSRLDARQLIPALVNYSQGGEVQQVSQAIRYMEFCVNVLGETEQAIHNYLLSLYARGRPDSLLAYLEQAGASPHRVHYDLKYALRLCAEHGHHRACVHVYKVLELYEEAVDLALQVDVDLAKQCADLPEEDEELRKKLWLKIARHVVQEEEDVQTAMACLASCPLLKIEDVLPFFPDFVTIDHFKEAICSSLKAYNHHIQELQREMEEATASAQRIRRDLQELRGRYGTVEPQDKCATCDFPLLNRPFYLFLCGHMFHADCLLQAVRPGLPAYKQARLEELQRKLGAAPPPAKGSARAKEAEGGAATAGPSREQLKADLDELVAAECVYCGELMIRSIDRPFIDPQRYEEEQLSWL
UniProt Q96S15: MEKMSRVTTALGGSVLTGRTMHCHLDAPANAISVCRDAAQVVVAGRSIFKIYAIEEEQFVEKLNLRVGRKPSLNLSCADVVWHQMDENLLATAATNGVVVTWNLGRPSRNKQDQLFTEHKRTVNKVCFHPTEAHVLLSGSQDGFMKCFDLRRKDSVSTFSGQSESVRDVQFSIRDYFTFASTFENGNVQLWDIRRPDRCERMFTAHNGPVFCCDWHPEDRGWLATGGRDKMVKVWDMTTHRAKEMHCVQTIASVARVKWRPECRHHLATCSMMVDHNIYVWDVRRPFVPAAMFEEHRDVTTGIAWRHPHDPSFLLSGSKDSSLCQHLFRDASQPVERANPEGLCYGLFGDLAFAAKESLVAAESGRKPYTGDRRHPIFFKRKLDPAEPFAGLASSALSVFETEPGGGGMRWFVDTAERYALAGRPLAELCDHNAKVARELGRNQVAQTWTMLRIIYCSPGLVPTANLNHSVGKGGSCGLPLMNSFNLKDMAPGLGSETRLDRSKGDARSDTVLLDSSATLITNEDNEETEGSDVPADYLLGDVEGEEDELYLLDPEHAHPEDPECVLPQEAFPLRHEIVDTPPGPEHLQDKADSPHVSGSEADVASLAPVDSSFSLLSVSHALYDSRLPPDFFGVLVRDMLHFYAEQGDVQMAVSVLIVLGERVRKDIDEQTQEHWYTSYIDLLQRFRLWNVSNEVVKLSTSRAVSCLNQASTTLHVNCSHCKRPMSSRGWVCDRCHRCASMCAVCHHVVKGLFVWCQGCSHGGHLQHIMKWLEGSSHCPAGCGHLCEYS
UniProt Q9Y2W2: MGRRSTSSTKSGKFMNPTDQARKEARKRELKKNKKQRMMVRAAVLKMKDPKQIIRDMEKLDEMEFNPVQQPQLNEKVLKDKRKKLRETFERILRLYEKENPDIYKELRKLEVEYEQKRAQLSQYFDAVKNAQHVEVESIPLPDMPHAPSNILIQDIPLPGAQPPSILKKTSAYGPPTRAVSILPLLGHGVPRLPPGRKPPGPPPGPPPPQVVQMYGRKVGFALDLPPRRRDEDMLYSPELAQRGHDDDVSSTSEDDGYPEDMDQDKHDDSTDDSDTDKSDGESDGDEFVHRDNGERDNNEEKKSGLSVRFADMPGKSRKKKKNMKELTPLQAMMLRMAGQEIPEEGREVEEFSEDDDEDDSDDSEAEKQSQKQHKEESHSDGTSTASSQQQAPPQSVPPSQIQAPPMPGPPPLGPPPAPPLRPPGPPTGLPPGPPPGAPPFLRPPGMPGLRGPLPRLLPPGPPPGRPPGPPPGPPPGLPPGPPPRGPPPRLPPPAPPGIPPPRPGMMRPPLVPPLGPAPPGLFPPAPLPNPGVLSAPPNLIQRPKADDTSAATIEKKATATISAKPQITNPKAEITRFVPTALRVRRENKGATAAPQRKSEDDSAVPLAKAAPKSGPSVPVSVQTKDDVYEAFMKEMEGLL

Legend:
Test in all cases: log2 fold change, soluble protein after heating vs DMSO (PISA); higher = thermal stabilisation; K562 lysate, 10 uM; active = over 0.2 and 3.5 SD of the protein, either way, in both replicates (recomputed)
erlotinib = compound: C#Cc1cccc(Nc2ncnc3cc(OCCOC)c(OCCOC)cc23)c1 [erlotinib]
In short: (§1)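 Quantification was by TMTpro 16plex LC-MS/MS with equalised channel sums, applied to the supernatant after 21,000xg for 90 min. Samples were crude K562 extract at 1 mg/mL protein in PBS pH 7.4 with 1 mM MgCl2, treated with 10 μM compound for 30 min, heated for 3 min across 48°C-58°C, pooled and brought to 0.5% NP-40 at 4°C. Values are log-two fold changes in thermal stability relative to solvent controls, from duplicates.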

[1] = compound: C/C(=N\NC(=O)C1=CC(=CC=C1)S(=O)(=O)N2CCOCC2)/C3=C(C=CC(=C3)Cl)O
In short: as §1

[2] = compound: C1=CC(=CC=C1C2=NC3=C(N2)C=C(C=C3)C(=O)N)OC4=CC=C(C=C4)Cl
In short: as §1

[3] = compound: C1=CC2=C(C=CC(=C2)/C=C\3/C(=O)NC(=NCC4=CC=CS4)S3)N=C1
In short: as §1

[4] = compound: C1=CC2=NC=CN=C2C=C1/C=C/3\C(=O)NC(=O)S3
In short: as §1

[5] = compound: C1=CC=C(C=C1)C2=NC(=C(N2)C3=CC=NC=C3)C4=CC(=C(C=C4)Cl)O
In short: as §1

[6] = compound: C1=CC=C2C(=C1)C3=NNC4=CC=CC(=C43)C2=O
In short: as §1

[7] = compound: C1CCN(C1)C(=O)NC2=CC=CC(=C2)NC3=NC=C(C(=N3)NCCC4=CN=CN4)Br
In short: as §1

[8] = compound: C1CN(CCC1(CC2=CC=C(C=C2)Cl)N)C3=NC=NC4=C3C=CN4
In short: as §1

IRAK-1-4 Inhibitor I = compound: C1COCCN1CCN2C3=CC=CC=C3N=C2NC(=O)C4=CC(=CC=C4)[N+](=O)[O-] [IRAK-1-4 Inhibitor I]
In short: as §1

Measured: log2 fold change

VPS53 isoform 4 (UniProt Q5VIR6)
inactive: erlotinib 0.023 | [1] 0.022 | [2] 0.033 | [3] 0.001 | [4] -0.001 | [5] -0.037 | [6] -0.033 | [7] 0.034 | [8] -0.017 | IRAK-1-4 Inhibitor I -0.01

VPS35 (UniProt Q96QK1)
inactive: erlotinib -0.016 | [1] 0.028 | [2] 0.008 | [3] 0.005 | [4] 0.002 | [5] 0.03 | [6] -0.008 | [7] -0.003 | [8] 0.017 | IRAK-1-4 Inhibitor I 0.003

WDR44 (UniProt Q5JSH3)
inactive: erlotinib -0.012 | [1] 0 | [2] 0.02 | [3] -0.013 | [4] -0.008 | [5] 0.004 | [6] -0.011 | [7] -0.005 | [8] 0.001 | IRAK-1-4 Inhibitor I 0.002

VTN (UniProt P04004)
inactive: erlotinib -0.065 | [1] -0.006 | [2] 0.003 | [3] -0.033 | [4] 0.107 | [5] -0.096 | [6] -0.129 | [7] -0.065 | [8] -0.042 | IRAK-1-4 Inhibitor I 0.043

WDR37 isoform 2 (UniProt Q9Y2I8)
inactive: erlotinib 0.024 | [1] 0.082 | [2] -0.033 | [3] 0.001 | [4] -0.045 | [5] 0.018 | [6] 0.014 | [7] -0.056 | [8] -0.028 | IRAK-1-4 Inhibitor I 0.003

WDR70 (UniProt Q9NW82)
inactive: erlotinib 0.068 | [1] 0.012 | [2] -0.04 | [3] -0.005 | [4] -0.005 | [5] 0.009 | [6] 0.004 | [7] -0.013 | [8] -0.028 | IRAK-1-4 Inhibitor I -0.014

XPNPEP1 isoform 3 (UniProt Q9NQW7)
inactive: erlotinib -0.001 | [1] 0.023 | [2] -0.019 | [3] 0.001 | [4] -0.007 | [5] -0.005 | [6] -0.011 | [7] -0.006 | [8] 0.005 | IRAK-1-4 Inhibitor I 0.009

WDR82 (UniProt Q6UXN9)
inactive: erlotinib -0.015 | [1] 0.009 | [2] 0.004 | [3] -0.004 | [4] 0.026 | [5] -0.007 | [6] 0.043 | [7] -0.001 | [8] 0.024 | IRAK-1-4 Inhibitor I -0.009

WRNIP1 (UniProt Q96S55)
inactive: erlotinib 0.019 | [1] -0.128 | [2] -0.014 | [3] -0.024 | [4] -0.005 | [5] 0.003 | [6] -0.064 | [7] 0.028 | [8] 0.023 | IRAK-1-4 Inhibitor I -0.05

WDR47 (UniProt O94967)
inactive: erlotinib 0.003 | [1] 0.04 | [2] 0.023 | [3] -0.039 | [4] 0.039 | [5] 0.074 | [6] 0.015 | [7] 0.046 | [8] 0.064 | IRAK-1-4 Inhibitor I -0.034

8 consecutive records already listed, for reference:
WDR44 (UniProt Q5JSH3)
inactive: erlotinib -0.012 | [1] 0 | [2] 0.02 | [3] -0.013 | [4] -0.008 | [5] 0.004 | [6] -0.011 | [7] -0.005 | [8] 0.001 | IRAK-1-4 Inhibitor I 0.002

VTN (UniProt P04004)
inactive: erlotinib -0.065 | [1] -0.006 | [2] 0.003 | [3] -0.033 | [4] 0.107 | [5] -0.096 | [6] -0.129 | [7] -0.065 | [8] -0.042 | IRAK-1-4 Inhibitor I 0.043

WDR37 isoform 2 (UniProt Q9Y2I8)
inactive: erlotinib 0.024 | [1] 0.082 | [2] -0.033 | [3] 0.001 | [4] -0.045 | [5] 0.018 | [6] 0.014 | [7] -0.056 | [8] -0.028 | IRAK-1-4 Inhibitor I 0.003

WDR70 (UniProt Q9NW82)
inactive: erlotinib 0.068 | [1] 0.012 | [2] -0.04 | [3] -0.005 | [4] -0.005 | [5] 0.009 | [6] 0.004 | [7] -0.013 | [8] -0.028 | IRAK-1-4 Inhibitor I -0.014

XPNPEP1 isoform 3 (UniProt Q9NQW7)
inactive: erlotinib -0.001 | [1] 0.023 | [2] -0.019 | [3] 0.001 | [4] -0.007 | [5] -0.005 | [6] -0.011 | [7] -0.006 | [8] 0.005 | IRAK-1-4 Inhibitor I 0.009

WDR82 (UniProt Q6UXN9)
inactive: erlotinib -0.015 | [1] 0.009 | [2] 0.004 | [3] -0.004 | [4] 0.026 | [5] -0.007 | [6] 0.043 | [7] -0.001 | [8] 0.024 | IRAK-1-4 Inhibitor I -0.009

WRNIP1 (UniProt Q96S55)
inactive: erlotinib 0.019 | [1] -0.128 | [2] -0.014 | [3] -0.024 | [4] -0.005 | [5] 0.003 | [6] -0.064 | [7] 0.028 | [8] 0.023 | IRAK-1-4 Inhibitor I -0.05

WDR47 (UniProt O94967)
inactive: erlotinib 0.003 | [1] 0.04 | [2] 0.023 | [3] -0.039 | [4] 0.039 | [5] 0.074 | [6] 0.015 | [7] 0.046 | [8] 0.064 | IRAK-1-4 Inhibitor I -0.034

(next part)

VPS52 (UniProt Q8N1B4)
inactive: erlotinib -0.029 | [1] 0.031 | [2] -0.04 | [3] 0.046 | [4] 0.005 | [5] -0.016 | [6] -0.028 | [7] -0.034 | [8] 0.024 | IRAK-1-4 Inhibitor I -0.025

VPS25 (UniProt Q9BRG1)
inactive: erlotinib 0.022 | [1] 0.078 | [2] 0.005 | [3] 0.026 | [4] -0.004 | [5] -0.039 | [6] -0.035 | [7] 0.038 | [8] 0.037 | IRAK-1-4 Inhibitor I 0.015

VPS50 (UniProt Q96JG6)
inactive: erlotinib -0.011 | [1] -0.002 | [2] -0.003 | [3] 0.032 | [4] 0.008 | [5] 0.001 | [6] -0.013 | [7] -0.013 | [8] -0.007 | IRAK-1-4 Inhibitor I 0

VPS41 (UniProt P49754)
inactive: erlotinib 0.032 | [1] 0.073 | [2] -0.029 | [3] 0.062 | [4] -0.003 | [5] 0.036 | [6] -0.033 | [7] -0.025 | [8] 0.049 | IRAK-1-4 Inhibitor I -0.008

WDR26, A0A499FIZ0
inactive: erlotinib -0.004 | [1] 0.055 | [2] 0 | [3] -0.008 | [4] 0.014 | [5] -0.015 | [6] 0.02 | [7] -0.003 | [8] -0.006 | IRAK-1-4 Inhibitor I -0.023

VPS45 (UniProt Q9NRW7)
inactive: erlotinib -0.005 | [1] 0.385 | [2] 0.034 | [3] 0.022 | [4] -0.033 | [5] -0.011 | [6] -0.018 | [7] 0.008 | [8] -0.057 | IRAK-1-4 Inhibitor I -0.022

WDR59 (UniProt Q6PJI9)
inactive: erlotinib 0.023 | [1] 0.102 | [2] 0.009 | [3] -0.016 | [4] 0.035 | [5] 0.063 | [6] 0.013 | [7] -0.093 | [8] -0.015 | IRAK-1-4 Inhibitor I 0.016

VPS18 (UniProt Q9P253)
inactive: erlotinib 0.018 | [1] 0.056 | [2] -0.032 | [3] -0.021 | [4] -0.016 | [5] 0.051 | [6] -0.076 | [7] -0.017 | [8] 0.053 | IRAK-1-4 Inhibitor I -0.034

WNK4 (UniProt Q96J92)
inactive: erlotinib 0.149 | [1] -0.022 | [2] -0.132 | [3] 0.014 | [4] -0.024 | [5] 0.013 | [6] -0.023 | [7] -0.017 | [8] 0.016 | IRAK-1-4 Inhibitor I 0.048

WDR24 (UniProt Q96S15)
inactive: erlotinib 0.023 | [1] 0.014 | [2] 0.029 | [3] -0.042 | [4] -0.018 | [5] 0.058 | [6] -0.012 | [7] -0.034 | [8] -0.007 | IRAK-1-4 Inhibitor I 0.034

WDR73 (UniProt Q6P4I2)
inactive: erlotinib 0.002 | [1] -0.005 | [2] 0.037 | [3] -0.03 | [4] 0.038 | [5] -0.004 | [6] 0.006 | [7] -0.008 | [8] -0.03 | IRAK-1-4 Inhibitor I 0.008

WBP11 (UniProt Q9Y2W2)
inactive: erlotinib -0.022 | [1] -0.103 | [2] 0.033 | [3] -0.004 | [4] -0.023 | [5] 0.007 | [6] 0.031 | [7] -0.004 | [8] -0.034 | IRAK-1-4 Inhibitor I -0.002

VPS13A (UniProt Q96RL7)
inactive: erlotinib -0.02 | [1] -0.004 | [2] 0.055 | [3] 0.034 | [4] -0.074 | [5] 0.007 | [6] -0.008 | [7] -0.002 | [8] -0.118 | IRAK-1-4 Inhibitor I 0.01

VPS37B (UniProt Q9H9H4)
inactive: erlotinib -0.046 | [1] 0.078 | [2] 0.059 | [3] 0.002 | [4] -0.011 | [5] 0.031 | [6] 0 | [7] 0.043 | [8] 0.098 | IRAK-1-4 Inhibitor I -0.012

WBP2 (UniProt Q969T9)
inactive: erlotinib 0.014 | [1] -0.002 | [2] 0.011 | [3] -0.002 | [4] -0.019 | [5] 0.037 | [6] 0.021 | [7] 0.01 | [8] -0.009 | IRAK-1-4 Inhibitor I -0.028

WDR3 (UniProt Q9UNX4)
inactive: erlotinib -0.036 | [1] -0.013 | [2] -0.044 | [3] -0.012 | [4] 0.027 | [5] -0.015 | [6] 0.026 | [7] 0.007 | [8] -0.04 | IRAK-1-4 Inhibitor I -0.02

WWC2 isoform 6 (UniProt Q6AWC2)
inactive: erlotinib -0.061 | [1] -0.111 | [2] 0.032 | [3] -0.003 | [4] -0.025 | [5] -0.026 | [6] -0.061 | [7] 0.032 | [8] 0.046 | IRAK-1-4 Inhibitor I -0.029

WASF1 (UniProt Q92558)
inactive: erlotinib 0.032 | [1] -0.025 | [2] 0.107 | [3] -0.025 | [4] -0.061 | [5] -0.017 | [6] -0.021 | [7] -0.09 | [8] 0.019 | IRAK-1-4 Inhibitor I 0.013

WARS (UniProt P23381)
inactive: erlotinib -0.015 | [1] -0.001 | [2] 0 | [3] 0 | [4] -0.009 | [5] 0.014 | [6] 0.041 | [7] 0.01 | [8] 0 | IRAK-1-4 Inhibitor I 0.021

WDR48 (UniProt Q8TAF3)
inactive: erlotinib -0.001 | [1] -0.032 | [2] 0.036 | [3] -0.003 | [4] -0.005 | [5] -0.015 | [6] -0.009 | [7] 0.001 | [8] -0.01 | IRAK-1-4 Inhibitor I -0.001
